In patent US20050049220A1, “Dosing regimen for Flaviviridae therapy” (priority 2003, published 2005):
“Also recorded” adds a separate entry of the source. For at least one compound, name, drawing or mass did not settle the structure.

Columns and labels:
HCV replicon cells = assay: Prevention studies with natural ribo- or 2′-deoxy nucleosides; format: cell-based, human; details: test compound at 96 h EC90 value; nucleosides at 50 μM
HCV replicon RNA [1] = assay: Replicon RNA copy number per cell; format: cell-based, hepatitis C virus (HCV); details: 7-day period; treated versus no-treatment controls
Protocol: FIG. 4 is a graphical depiction of the log10 changes for replicon RNA levels per cell. The plots were obtained from data collected in FIGS. 2 and 3, in which log10 changes for cell count and replicon RNA levels were subtracted from each other. A. Control antiviral compounds. ●: no drug control; ▾: IFN-α-2a at 100 IU/ml; ▪: ribavirin at 100 μM. B. Selection of the most important anti-metabolites. ●: no drug control; ▾: dFdC at 50 nM; ▪: CP-C at 25 μM; ♦: CPE-C at 2.5 μM; ▴: PALA at 10 μM; ●: PZF at 5 μM.
To express the specificity of the antiviral action of the control compounds versus the anti-metabolites, the log10 change in replicon RNA copy number per cell and per day was calculated from the above experiments.

HCV replicon RNA [2] = assay: 7-day dynamics of HCV RNA levels; format: cell-based, hepatitis C virus (HCV); details: 7-day period; at 96 h EC90 value (IFN 100 IU/ml)
[3] = system: HCV replicon cells (Huh-7); assay: 7-day cell growth dynamics, trypan-blue cell count; details: 7-day period; at 96 h EC90 value (ribavirin 100 μM, IFN 100 IU/ml)
Protocol: FIG. 2 is a graphical depiction of the dynamics of cell growth and HCV RNA levels after exposure to control anti-HCV compounds. HCV replicon cells were seeded at approximately 10^4 cells per well in a 24-well plate. Over a 7-day period, cells were counted daily, and rRNA and HCV RNA were quantified by Q-RT-PCR. A: IFN-α-2a at 100 IU/ml; B: ribavirin at 100 μM. ●: cell proliferation in absence of compound; ◯: cell proliferation in presence of compound; ▾: HCV RNA levels in untreated cells; ∇: HCV RNA levels in the presence of compound. The curves shown are averages of 3 independent experiments.
Therefore, experiments were conducted to monitor HCV RNA levels and the cell growth dynamics over a 7-day period.
The dynamics of HCV replicon cells exposed to these inhibitors (at their EC90 value) was monitored over a 7-day period.

Nc1ccn([C@@H]2C=C(CO)[C@@H](O)[C@H]2O)c(=O)n1 [CPE-C, cyclopentenylcytosine]
prevention of antiviral and cytostatic effects by natural nucleosides (HCV replicon cells): addition of cytidine to the culture medium compensated for the inhibitory effects; also recorded: prevented by both 50 μM uridine and cytidine | change in replicon RNA copy number per cell (words) (HCV replicon RNA [1]): profile similar to that seen for IFN-α-2a | effect on HCV RNA levels (HCV replicon RNA [2]): reduced HCV-replicon RNA levels | effect on cell proliferation [3]: cytostatic effects

O=C(O)C[C@H](NC(=O)CP(=O)(O)O)C(=O)O [PALA, N-(Phosphonoacetyl)-L-aspartate]
prevention of antiviral and cytostatic effects by natural nucleosides (HCV replicon cells): prevented by addition of uridine | change in replicon RNA copy number per cell (words) (HCV replicon RNA [1]): time dependent reduction | effect on HCV RNA levels (HCV replicon RNA [2]): significantly reduced HCV RNA levels | effect on cell proliferation [3]: reduced cell proliferation only minimally
